Over roughly 33,000 sequences, “E-score (-0.5 to 0.5)” has its median near -8e-05; the highest 2% begin near 0.23. Some of the results follow.
Biological target: T1, Nrg2 (UniProt P38082)
T1 sequence: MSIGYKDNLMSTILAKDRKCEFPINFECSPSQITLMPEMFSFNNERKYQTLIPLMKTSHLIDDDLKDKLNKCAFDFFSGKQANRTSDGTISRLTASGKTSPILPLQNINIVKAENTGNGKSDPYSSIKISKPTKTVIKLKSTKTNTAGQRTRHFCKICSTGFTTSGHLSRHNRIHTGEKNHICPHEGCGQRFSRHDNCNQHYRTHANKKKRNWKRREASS
Assay: PBM E-score (8-mer binding enrichment) (E-score (-0.5 to 0.5)); higher = stronger / more preferred TF binding
Settings: protein concentration: 100 nM; construct: GST-full length
Procedure, shortened: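 Universal all-10-mer Agilent arrays, double-stranded by primer extension on fresh or once-stripped slides, were probed with about 100-200 nM GST-tagged yeast transcription factors made by PURExpress. Fluorescent anti-GST detected bound protein, and masliner normalised the scans. E-scores from the Universal PBM Analysis Suite were given to each ungapped eight-base word pooled with its reverse complement.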

Sequence | PBM E-score
ATCACTGA | -0.0438
CTACTGCA | -0.176
CGCCTGTC | -0.106
CAGTCAGG | 0.047
CAAGAGAG | -0.0197
GAAATATA | 0.256
AAGGCGTC | -0.0697
TAGATACA | 0.0563
ACCATGCC | -0.0606
GTCGAGGA | -0.076
AACCACAG | -0.0459
CAGGCCGG | -0.287
GCCGTACC | -0.0541
ACGAAATA | 0.167
CAGTCCGA | -0.0581
CCTGCCCA | -0.0494
CCGTGGAG | -0.226
CTGTAAAG | -0.188
CATGCGAA | 0.134
CCCTCATC | -0.0723
CCTCGCAG | -0.134
ACGCCAAT | 0.165
ATTGTGAG | 0.0877
AATAGACG | 0.0374
CCGTGCTC | 0.0134

Some of the entries so far, with tabs.
Sequence	PBM E-score
AACCACAG	-0.0459
CAGGCCGG	-0.287
GCCGTACC	-0.0541
ACGAAATA	0.167
CAGTCCGA	-0.0581
CCTGCCCA	-0.0494

(cont.)

Sequence | PBM E-score
CCTCGTCC | -0.0417
ATATGTTC | 0.0931
GGTATGAC | -0.0832
CCTCTGAA | -0.0416
ATAATCAC | 0.164
TTACAAAA | 0.108
GGCCCAGA | -0.206
AAGCCGAT | 0.145
CCCCGGGA | -0.0884
AGAAGATC | -0.00975
AAACCACC | -0.0593
CCTGCGGC | -0.168
ACTACCCA | -0.00273
AGCAACAT | -0.0597
CCGAGCTC | 0.0994
CCAGTGCA | -0.0882
AGGTCATA | -0.0661
ACATAAAT | 0.173
CAGTCGAG | -0.134
GGACTAAC | -0.147
AACCTCCT | -0.264
GACCTGGA | -0.178
AAAGAATG | 0.0464
AGCCTAAC | -0.172
AGTGGCCC | 0.0766

Sequence | PBM E-score
CAATCCGA | 0.185
GCCCCACC | 0.106
ACCAAAAC | 0.129
TAACACTA | 0.248
ATGTCTCC | 0.0494
ACCGGGAG | -0.288
AGGACCGG | -0.203
GGACCGGA | -0.0717
CTGGACGC | -0.0455
CGTGAAGA | -0.0995
GAATATCA | 0.0654
CCTTCTTA | -0.0639
GGCAGCCA | -0.144
ATAAGATC | 0.00507
CACAACCG | 0.163
CAGATCCC | -0.0225
CTACTTGA | 0.0491
ATGTGGAC | -0.0186
ATGGACGA | 0.0668
GCTCTAGA | -0.119
GTGGCGTA | -0.0871
TCGACCAA | -0.0185
TATTCCAA | 0.0202
CTGTTACC | -0.11
GCGTAGAC | -0.102

3 successive entries from above, quoted:
Sequence | PBM E-score
CGCCTGTC | -0.106
CAGTCAGG | 0.047
CAAGAGAG | -0.0197

(continued)

Sequence | PBM E-score
ATGTTGTG | 0.0966
ACCGGCGC | 0.122
ACCGCCAA | 0.00879
AGGAACTG | 0.0301
CATTCTTA | 0.134
ACTTCGAC | -0.0444
CGCCAAAA | 0.119
ATCCAAGA | -0.0224
CTCTGATC | -0.127
CATGCTGG | -0.0773
ACTCCGCG | -0.0414
GTGGAATA | -0.013
ACGACAGA | 0.0203
GACGAGCA | 0.0439
TGAGATAA | 0.211
CTGTGTGC | -0.148
CACAGGAG | -0.043
CTCGAACC | 0.0779
CGTGCCCC | -0.186
CGCTACGA | 0.0756
TAACAGTA | 0.175
TCAAAGCA | -0.00085
AACACAAA | 0.103
CATTGTCG | -0.0489
ACGTTACT | 0.0291

Sequence | PBM E-score
ACAGTCAA | -0.00256
AGAGTAAA | 0.0187
GCGAGCTA | 0.158
GGACGCAA | 0.0616
ATAGTAAC | 0.074
ATGCGTCC | 0.0719
ACGCACGA | 0.171
CAGGCTAG | -0.209
ATAGTTCG | 0.0661
CTGTGAAA | 0.142
AAATTCCT | -0.096
CGTGTCAG | 0.041
ATATACAT | 0.108
CCTCCAGC | -0.372
GAAACTAC | 0.0746
CTTGTTCC | -0.0907
CATTGTAG | 0.106
ACGACCTC | 0.152
AGGTATTG | 0.155
ATTGTTTA | 0.0336
GAACACTA | 0.0307
GCACAGAA | 0.0161
CATACCAA | -0.00757
CTGCGTTC | 0.223
CCGGAGTA | 0.078

Sequence | PBM E-score
ACTGGGAC | 0.00152
AGACGATC | -0.128
AACAACGT | -0.024
GCACAGCA | 0.00454
ATCGTCTG | -0.046
CCCGCGGG | 0.278
GGACCGTA | -0.397
ACGTGCCA | -0.0385
GGCGGCCA | -0.0452
ATTTACGC | -0.0575
ATATTCGG | 0.00862
TATACTAA | 0.0368
AGTTGAGA | 0.00277
GCTTGCTA | -0.0547
CGCACACA | 0.0421
AAGTTTCA | 0.149
CGTCAGTC | -0.0763
GGCGCCAA | 0.133
ACCGACAG | 0.138
ACCGAGTC | -0.254
ACTATATA | 0.23
CCCGACCC | -0.00871
CTGATAAA | 0.199
GATAGCCA | -0.168
AGGCCCAG | -0.183

Sequence | PBM E-score
CATGCTAC | -0.139
AAAAGTAA | 0.106
ACTGCCTA | -0.113
CCACCTCG | -0.154
ACATCCAG | 0.102
AGGTGAAT | 0.102
CGATAGCC | -0.0571
CCGAAAGG | 0.0391
CACGACGG | 0.153
CCTGTTCG | -0.00968
AACTTCAT | 0.0274
GGGATTCA | 0.0409
TGTATGAA | -0.0766
CTCGTATA | -0.0578
CCAATGCA | 0.0514
AGAGAAAC | 0.0693
AGAACCCC | -0.0592
TAACGTCA | 0.0193
CTGGGGCA | -0.0148
GCGAGAAA | 0.0215
AACCGGCC | -0.0812
GTGACTGA | 0.0434

2 records picked at random from the list so far:
Sequence | PBM E-score
CTGGGGCA | -0.0148
GGGATTCA | 0.0409

— the supplement of paper PMC3334620
